Assay results: patent US10085449B2, “N-[1-((6-chloropyridin-3-yl)methyl)pyridin-2(1H)-ylidene]-2,2,2- trifluoroacetamide for control of agricultural/horticultural pests” (priority 2010, dated 2018)
Read-outs that look alike come from different tables or passages of the source. Some entries share one result that the patent states for a list of compounds.

Legend:
cotton aphid = type: in vivo; conditions: first-instar larvae on cucumber leaf discs, 3 days after release
Method: Leaf discs 2.0 cm in diameter were cut from cucumber plants grown in pots, and these were sprayed with solutions of the inventive compounds at a predetermined concentration prepared to 50% acetone/water (containing 0.05% Tween 20). The treated leaf discs were air dried, following which first-instar larvae were released onto the discs. The leaf discs and larvae were then held in an incubation chamber at 25° C. (16-hour period of light, 8-hour dark period). Three days after released, the numbers of live and dead insects were counted, and the mortality was calculated from the following formula. This was a two-replication test. Mortality (%)=[number of dead insects/(number of live insects+number of dead insects)]×100

[1] = tested on: Haemaphysalis longicornis; type: in vivo; conditions: 200 ppm acetone solution (30 μL) dry film, larval ticks, 1 day after release
Method: Glass vials having a capacity of 4 mL were each filled with 30 μL of an acetone solution containing 200 ppm or 10 ppm of the respective compounds. These filled vials were placed on a shaker and air-dried while being spun, thereby forming dry films of the compounds on the inner walls of the vials. After the vials had been dried for at least 24 hours, ten larval ticks (Haemaphysalis longicornis) were released into each vial, following which the vials were capped. The vials were then left at rest in an incubation chamber at 25° C., 85% humidity and complete darkness. One day after released, the numbers of live and dead ticks were counted, and the mortality was calculated from the following formula.
This test was carried out as two replications. Mortality (%)=[number of dead ticks/(number of live ticks+number of dead ticks)]×100

SMILES: CCN(Cc1ccc(Cl)nn1)C(=O)C(F)(F)F [Compound 157]
- Mortality (cotton aphid; 20 ppm foliar application): at least 80%
- Mortality (cotton aphid; 100 ppm foliar application): at least 80%

SMILES: COC(=O)N(CCSC)Cc1ccc(Cl)nc1 [Compound 27]
- Mortality (cotton aphid; 500 ppm foliar application): at least 80%

SMILES: CC(=O)N(CC#N)Cc1ccc(Cl)nc1 [Compound 245]
- Mortality (cotton aphid; 100 ppm foliar application): at least 80%

SMILES: N#CN(CCSc1ccccc1)Cc1ccc(Cl)nc1 [Compound 52]
- Mortality (cotton aphid; 500 ppm foliar application): at least 80%

SMILES: N#CN(Cc1ccc(Cl)nc1)CC1CC1 [Compound 71, 2-chloro-5-[N-cyano-N-(cyclopropylmethyl)]aminomethylpyridine]
- Mortality (cotton aphid; 100 ppm foliar application): at least 80%
- Mortality (cotton aphid; 500 ppm foliar application): at least 80%

SMILES: CSCCN(Cc1ccc(Cl)nc1)C(=O)C(F)(F)F [Compound 31]
- Mortality (cotton aphid; 500 ppm foliar application): at least 80%

SMILES: CCN(Cc1ccc(Cl)nc1)C(=O)C(F)(F)F [Compound 21, 2-chloro-5-[N-trifluoroacetyl-N-ethyl]aminomethylpyridine]
- Mortality (cotton aphid; 20 ppm foliar application): at least 80%
- Mortality (cotton aphid; 100 ppm foliar application): at least 80%
- Mortality (cotton aphid; 500 ppm foliar application): at least 80%
- Mortality [1]: at least 80%

SMILES: C#CCN(C#N)Cc1cnc(Cl)s1 [Compound 120]
- Mortality [1]: at least 80%

SMILES: CCN(Cc1cnccc1C(F)(F)F)C(=O)C(F)(F)F [Compound 130]
- Mortality [1]: at least 80%

SMILES: CCN(C(=O)C(F)(F)F)C(C)c1ccc(Cl)nc1 (centres unmarked) [Compound 105]
- Mortality (cotton aphid; 100 ppm foliar application): at least 80%
- Mortality [1]: at least 80%

SMILES: CSCCN(C=O)Cc1ccc(Cl)nc1 [Compound 29, 2-chloro-5-[N-formyl-N-(2-methylthioethyl)]aminomethylpyridine]
- Mortality (cotton aphid; 500 ppm foliar application): at least 80%

SMILES: CCN(C(=O)C(F)(F)F)C(C)c1ccc(C(F)(F)F)nc1 (centres unmarked) [Compound 115]
- Mortality [1]: at least 80%

SMILES: CCN(Cc1ccccc1)C(=S)SCCCN(C#N)Cc1ccc(Cl)nc1 [Compound 103]
- Mortality (cotton aphid; 500 ppm foliar application): at least 80%

SMILES: O=C(N(Cc1ccc(Cl)nc1)CC(F)F)C(F)(F)F [Compound 97]
- Mortality (cotton aphid; 100 ppm foliar application): at least 80%
- Mortality [1]: at least 80%

SMILES: CSCCN(C#N)Cc1cnc(Cl)c(F)c1 [Compound 79]
- Mortality (cotton aphid; 500 ppm foliar application): at least 80%

SMILES: CSCCN(Cc1ccc(Cl)nc1)C(=O)C(Cl)(Cl)Cl [Compound 34]
- Mortality (cotton aphid; 100 ppm foliar application): at least 80%
- Mortality (cotton aphid; 500 ppm foliar application): at least 80%

SMILES: CC(=O)OCCN(C#N)Cc1ccc(Cl)nc1 [Compound 61]
- Mortality (cotton aphid; 500 ppm foliar application): at least 80%
- Mortality [1]: at least 80%

SMILES: CSCCN(Cc1ccc(Cl)nc1)C(=O)c1ccccc1 [Compound 30]
- Mortality (cotton aphid; 500 ppm foliar application): at least 80%

SMILES: CCN(C#N)Cc1cccc(C#N)c1 [Compound 45]
- Mortality (cotton aphid; 500 ppm foliar application): at least 80%
- Mortality [1]: at least 80%

SMILES: CCOC(=S)SCCCN(C#N)Cc1ccc(Cl)nc1 [Compound 101]
- Mortality (cotton aphid; 500 ppm foliar application): at least 80%
- Mortality [1]: at least 80%

SMILES: CCN(C#N)Cc1ccc(Cl)cc1 [Compound 37]
- Mortality (cotton aphid; 500 ppm foliar application): at least 80%

SMILES: N#CN(CCSCc1ncc[nH]1)Cc1ccc(Cl)nc1 [Compound 113]
- Mortality (cotton aphid; 100 ppm foliar application): at least 80%

SMILES: CCN(Cc1ccccc1)C(C)=O [Compound 39]
- Mortality [1]: at least 80%

SMILES: N#CN(Cc1ccc(Cl)nc1)C1CCSC1 (centres unmarked) [Compound 76]
- Mortality (cotton aphid; 100 ppm foliar application): at least 80%
- Mortality (cotton aphid; 500 ppm foliar application): at least 80%

SMILES: N#CN(CCOc1ccccc1)Cc1ccc(Cl)nc1 [Compound 53]
- Mortality [1]: at least 80%

SMILES: CCN(C#N)Cc1cnccc1Br [Compound 149]
- Mortality (cotton aphid; 100 ppm foliar application): at least 80%

SMILES: CSCCN(C#N)C(C)c1ccc(Cl)nc1 (centres unmarked) [Compound 73]
- Mortality (cotton aphid; 500 ppm foliar application): at least 80%

SMILES: CSCCN(Cc1ccc(Cl)nc1)C(=O)Oc1ccccc1 [Compound 25]
- Mortality (cotton aphid; 500 ppm foliar application): at least 80%

SMILES: N#CN(Cc1ccccc1)Cc1ccc(Cl)nc1 [Compound 44]
- Mortality (cotton aphid; 500 ppm foliar application): at least 80%

SMILES: CCN(C#N)Cc1cccnc1 [Compound 36]
- Mortality (cotton aphid; 500 ppm foliar application): at least 80%

SMILES: CCCN(C#N)Cc1cnc(Cl)s1 [Compound 122]
- Mortality (cotton aphid; 500 ppm foliar application): at least 80%

SMILES: Cc1ccc(S(=O)(=O)OCCCN(C#N)Cc2ccc(Cl)nc2)cc1 [Compound 100]
- Mortality (cotton aphid; 500 ppm foliar application): at least 80%
